Source: paper PMC8602370
No constants are given. Whether binding was seen depends on the method and setting. Some results given as binding are weak or reduced against the parent protein; the word gives no strength. Where a sequence is shown, tags or fusion partners need not be part of it.

Chains of the proteins cited; added tags and fusions are not shown.
UniProt P09874: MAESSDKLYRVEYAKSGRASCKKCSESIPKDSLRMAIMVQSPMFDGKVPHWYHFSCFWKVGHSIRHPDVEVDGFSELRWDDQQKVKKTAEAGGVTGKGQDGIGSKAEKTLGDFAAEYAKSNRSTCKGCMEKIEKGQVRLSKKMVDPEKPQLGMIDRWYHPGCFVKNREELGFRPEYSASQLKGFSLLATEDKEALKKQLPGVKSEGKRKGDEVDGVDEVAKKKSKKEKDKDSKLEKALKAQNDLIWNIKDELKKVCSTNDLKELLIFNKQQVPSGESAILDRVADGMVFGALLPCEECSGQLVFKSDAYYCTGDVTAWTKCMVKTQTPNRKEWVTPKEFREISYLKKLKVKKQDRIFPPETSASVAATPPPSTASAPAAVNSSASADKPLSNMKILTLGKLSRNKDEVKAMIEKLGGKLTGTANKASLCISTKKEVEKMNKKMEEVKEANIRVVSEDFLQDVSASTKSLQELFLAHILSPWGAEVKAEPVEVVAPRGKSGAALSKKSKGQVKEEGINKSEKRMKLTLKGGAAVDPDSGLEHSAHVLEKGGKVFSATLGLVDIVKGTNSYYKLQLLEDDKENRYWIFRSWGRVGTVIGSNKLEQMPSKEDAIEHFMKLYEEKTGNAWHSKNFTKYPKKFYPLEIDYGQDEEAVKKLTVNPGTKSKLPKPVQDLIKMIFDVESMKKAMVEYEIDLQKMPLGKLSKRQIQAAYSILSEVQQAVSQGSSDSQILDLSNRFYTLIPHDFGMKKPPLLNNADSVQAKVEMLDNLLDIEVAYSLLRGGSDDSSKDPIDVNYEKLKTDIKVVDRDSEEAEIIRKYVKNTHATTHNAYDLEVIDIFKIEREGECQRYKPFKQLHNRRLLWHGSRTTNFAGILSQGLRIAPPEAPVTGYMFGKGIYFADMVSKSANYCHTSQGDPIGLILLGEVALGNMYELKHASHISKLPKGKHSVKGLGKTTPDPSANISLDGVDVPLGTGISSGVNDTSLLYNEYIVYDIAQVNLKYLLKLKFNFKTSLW

B1: Histone PARylation Factor 1 (HPF1) (protein, UniProt Q9NWY4 1-346)
chain: MVGGGGKRRPGGEGPQCEKTTDVKKSKFCEADVSSDLRKEVENHYKLSLPEDFYHFWKFCEELDPEKPSDSLSASLGLQLVGPYDILAGKHKTKKKSTGLNFNLHWRFYYDPPEFQTIIIGDNKTQYHMGYFRDSPDEFPVYVGINEAKKNCIIVPNGDNVFAAVKLFLTKKLREITDKKKINLLKNIDEKLTEAARELGYSLEQRTVKMKQRDKKVVTKTFHGAGLVVPVDKNDVGYRELPETDADLKRICKTIVEAASDEERLKAFAPIQEMMTFVQFANDECDYGMGLELGMDLFCYGSHYFHKVAGQLLPLAYNLLKRNLFAEIIEEHLANRSQENIDQLAA
B2: Histone PARylation Factor 1 (HPF1), Q9NWY4 1-346 (natural protein)
chain: B1 chain

Experiments:
[1] = target: PARP1 (residues 1 to 1014) (UniProt P09874); assay: SPR; biotinylated DNA SSB captured on a streptavidin chip, PARP1 (40 nM) flowed on to form a PARP1/DNA complex, then HPF1 injected without an NAD+ mimic; 25 mM HEPES pH 7.4, 250 mM NaCl, 0.1 mM TCEP, 1 mM EDTA, 0.05% Tween20; both purified
[2] = target: PARP1 (residues 1 to 1014), P09874; assay: HDX-MS; 2.6 µM PARP1 with 5 µM SSB DNA, with or without 2.6 µM HPF1; on-exchange at room temperature in 10 mM HEPES pD 7.0, 150 mM NaCl, 75% D2O, 10 s to 100,000 s; no NAD+ mimic; both purified; conditions: remark: other sources report otherwise
[3] = target: PARP1 (residues 1 to 1014), P09874; assay: negative-stain EM; PARP1 assembled with SSB DNA (one-nucleotide gap) and EB47, with or without HPF1, at 5 µM in 25 mM Hepes pH 8.0, 150 mM NaCl, 0.1 mM TCEP; uranyl formate stain, 2D class averages; both purified; conditions: remark: other sources report otherwise
[4] = target: PARP1 (residues 1 to 1014), P09874; assay: SPR; biotinylated DNA SSB captured on a streptavidin chip, PARP1 (40 nM) flowed on to form a PARP1/DNA complex, then HPF1 injected with BAD (300 µM); 25 mM HEPES pH 7.4, 250 mM NaCl, 0.1 mM TCEP, 1 mM EDTA, 0.05% Tween20; both purified; conditions: remark: other sources report otherwise

Row | binding [1] | binding [2] | binding [3] | binding [4] | Binder
1 | binds weakly | – | – | – | B1
2 | – | binds | binds | binds | B2
